Patent publication US20130023541A1, “VOLTAGE-GATED SODIUM CHANNEL BLOCKERS” (Glaxo Group Limited, priority 2010, published 2013)
Structures can show the parent of a compound that is named as a salt. Some entries share one result that the patent states for a list of compounds. At least one structure is not confirmed: it was looked up by name or label, or the drawing left a doubt.

By UniProt entry, the sequences of proteins in these tests, tags left out.
UniProt Q9NY46, whole entry: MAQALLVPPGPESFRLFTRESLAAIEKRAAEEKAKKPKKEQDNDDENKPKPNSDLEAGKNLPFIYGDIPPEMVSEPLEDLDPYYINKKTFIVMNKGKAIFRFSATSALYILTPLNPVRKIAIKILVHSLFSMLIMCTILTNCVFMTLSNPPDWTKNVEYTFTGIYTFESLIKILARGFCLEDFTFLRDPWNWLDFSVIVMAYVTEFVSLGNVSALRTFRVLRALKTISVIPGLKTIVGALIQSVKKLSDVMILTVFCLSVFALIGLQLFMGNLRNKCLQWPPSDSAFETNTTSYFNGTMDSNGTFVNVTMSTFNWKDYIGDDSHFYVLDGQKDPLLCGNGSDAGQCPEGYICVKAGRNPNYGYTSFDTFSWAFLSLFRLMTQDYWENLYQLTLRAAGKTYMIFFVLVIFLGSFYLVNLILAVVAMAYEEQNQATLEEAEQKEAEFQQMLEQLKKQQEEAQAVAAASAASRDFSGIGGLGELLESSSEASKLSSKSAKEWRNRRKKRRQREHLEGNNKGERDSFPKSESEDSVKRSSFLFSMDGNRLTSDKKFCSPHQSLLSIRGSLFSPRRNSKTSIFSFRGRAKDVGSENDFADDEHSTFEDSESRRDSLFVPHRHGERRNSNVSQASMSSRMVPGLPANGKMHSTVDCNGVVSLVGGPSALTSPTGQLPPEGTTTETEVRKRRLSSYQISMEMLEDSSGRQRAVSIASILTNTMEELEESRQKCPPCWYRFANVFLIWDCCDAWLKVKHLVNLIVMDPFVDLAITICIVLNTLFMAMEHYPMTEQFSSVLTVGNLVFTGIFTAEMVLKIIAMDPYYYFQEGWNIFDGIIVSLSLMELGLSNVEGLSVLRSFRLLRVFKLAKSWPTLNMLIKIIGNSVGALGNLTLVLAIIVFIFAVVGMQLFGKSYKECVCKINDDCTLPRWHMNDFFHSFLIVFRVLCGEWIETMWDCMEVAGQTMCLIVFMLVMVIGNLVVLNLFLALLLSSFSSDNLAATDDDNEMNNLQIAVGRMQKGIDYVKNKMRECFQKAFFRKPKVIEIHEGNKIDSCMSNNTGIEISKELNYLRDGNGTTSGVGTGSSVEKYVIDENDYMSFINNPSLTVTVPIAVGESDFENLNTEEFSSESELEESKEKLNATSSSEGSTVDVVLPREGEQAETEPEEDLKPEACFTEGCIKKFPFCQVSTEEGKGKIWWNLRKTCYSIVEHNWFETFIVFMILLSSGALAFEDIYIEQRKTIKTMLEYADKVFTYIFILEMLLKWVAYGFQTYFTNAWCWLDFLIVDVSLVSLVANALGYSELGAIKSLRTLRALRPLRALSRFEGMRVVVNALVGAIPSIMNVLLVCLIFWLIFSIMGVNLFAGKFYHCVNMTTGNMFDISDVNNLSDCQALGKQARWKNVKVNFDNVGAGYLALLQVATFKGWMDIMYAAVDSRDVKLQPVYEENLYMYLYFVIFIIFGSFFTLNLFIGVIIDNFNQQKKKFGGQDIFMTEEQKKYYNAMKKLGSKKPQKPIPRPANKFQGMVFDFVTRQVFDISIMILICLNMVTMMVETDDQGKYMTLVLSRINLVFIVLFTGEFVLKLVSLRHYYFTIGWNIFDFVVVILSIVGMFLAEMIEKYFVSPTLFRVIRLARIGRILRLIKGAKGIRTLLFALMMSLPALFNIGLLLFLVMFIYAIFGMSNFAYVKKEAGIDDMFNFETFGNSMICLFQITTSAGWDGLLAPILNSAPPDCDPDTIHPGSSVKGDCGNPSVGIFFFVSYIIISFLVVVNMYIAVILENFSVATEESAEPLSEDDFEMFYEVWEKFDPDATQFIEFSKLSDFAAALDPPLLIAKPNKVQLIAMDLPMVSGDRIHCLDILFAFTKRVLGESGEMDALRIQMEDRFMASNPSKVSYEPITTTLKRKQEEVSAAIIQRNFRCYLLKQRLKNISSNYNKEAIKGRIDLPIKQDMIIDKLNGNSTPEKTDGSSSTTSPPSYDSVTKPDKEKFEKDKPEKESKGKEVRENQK
UniProt Q15858, whole entry: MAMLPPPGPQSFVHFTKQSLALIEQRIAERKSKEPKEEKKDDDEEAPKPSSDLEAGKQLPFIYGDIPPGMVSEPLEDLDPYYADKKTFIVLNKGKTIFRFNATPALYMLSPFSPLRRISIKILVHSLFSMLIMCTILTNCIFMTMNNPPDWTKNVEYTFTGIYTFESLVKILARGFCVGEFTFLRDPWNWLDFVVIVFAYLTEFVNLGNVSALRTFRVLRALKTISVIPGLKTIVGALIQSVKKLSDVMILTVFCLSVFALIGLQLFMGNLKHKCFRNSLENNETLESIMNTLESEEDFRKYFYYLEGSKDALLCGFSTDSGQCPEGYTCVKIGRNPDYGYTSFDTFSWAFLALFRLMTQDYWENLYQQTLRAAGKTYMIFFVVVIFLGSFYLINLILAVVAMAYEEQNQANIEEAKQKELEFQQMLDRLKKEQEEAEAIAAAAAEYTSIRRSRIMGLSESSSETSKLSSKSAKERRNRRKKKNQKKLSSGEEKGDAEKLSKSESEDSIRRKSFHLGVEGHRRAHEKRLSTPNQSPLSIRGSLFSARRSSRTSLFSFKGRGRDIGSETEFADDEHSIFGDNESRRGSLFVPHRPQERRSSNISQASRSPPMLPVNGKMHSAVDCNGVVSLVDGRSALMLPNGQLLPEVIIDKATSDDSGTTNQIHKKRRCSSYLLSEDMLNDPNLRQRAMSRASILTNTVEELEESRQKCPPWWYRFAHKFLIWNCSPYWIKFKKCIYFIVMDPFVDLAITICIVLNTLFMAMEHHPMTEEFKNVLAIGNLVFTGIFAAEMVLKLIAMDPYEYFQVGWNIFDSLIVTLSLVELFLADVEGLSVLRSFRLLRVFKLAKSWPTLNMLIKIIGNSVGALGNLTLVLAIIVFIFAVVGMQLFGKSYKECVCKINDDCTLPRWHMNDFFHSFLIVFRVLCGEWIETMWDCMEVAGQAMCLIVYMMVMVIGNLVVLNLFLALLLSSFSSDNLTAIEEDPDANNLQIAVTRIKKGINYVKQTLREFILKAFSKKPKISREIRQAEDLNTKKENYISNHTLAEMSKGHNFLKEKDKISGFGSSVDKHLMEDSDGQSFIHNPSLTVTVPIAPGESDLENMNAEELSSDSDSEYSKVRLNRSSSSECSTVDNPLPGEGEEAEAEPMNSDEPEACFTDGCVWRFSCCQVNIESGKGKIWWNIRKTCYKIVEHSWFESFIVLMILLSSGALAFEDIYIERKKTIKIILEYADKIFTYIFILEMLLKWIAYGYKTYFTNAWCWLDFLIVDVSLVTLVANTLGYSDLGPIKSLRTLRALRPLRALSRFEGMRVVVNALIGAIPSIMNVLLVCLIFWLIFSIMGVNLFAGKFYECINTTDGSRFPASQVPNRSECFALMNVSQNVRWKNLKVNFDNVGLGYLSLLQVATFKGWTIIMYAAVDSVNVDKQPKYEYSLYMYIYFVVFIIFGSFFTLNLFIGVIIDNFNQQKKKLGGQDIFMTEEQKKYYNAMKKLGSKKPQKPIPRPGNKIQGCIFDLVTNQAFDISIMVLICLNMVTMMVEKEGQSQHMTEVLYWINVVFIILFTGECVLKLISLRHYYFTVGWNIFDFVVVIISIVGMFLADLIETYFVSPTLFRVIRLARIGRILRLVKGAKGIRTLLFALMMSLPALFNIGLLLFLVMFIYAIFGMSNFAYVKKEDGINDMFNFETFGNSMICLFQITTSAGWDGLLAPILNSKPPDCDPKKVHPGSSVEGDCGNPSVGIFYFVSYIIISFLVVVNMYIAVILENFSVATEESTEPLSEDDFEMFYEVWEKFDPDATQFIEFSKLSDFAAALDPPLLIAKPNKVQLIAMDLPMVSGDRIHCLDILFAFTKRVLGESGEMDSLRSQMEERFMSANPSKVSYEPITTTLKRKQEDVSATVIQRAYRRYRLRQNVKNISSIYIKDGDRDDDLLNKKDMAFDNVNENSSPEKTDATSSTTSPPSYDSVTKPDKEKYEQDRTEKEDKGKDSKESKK

Experiments:
hNaV1.3 channels = molecular target: T1, hNaV1.3 channels (Homo sapiens, UniProt Q9NY46); assay: Use-dependent block of hNaV1.3 currents, IonWorks Quattro planar array electrophysiology; type: cell-based; settings: concentration producing 15% use-dependent inhibition, 10th versus 1st depolarizing pulse, 10 Hz, CHO cells
T1 construct: expressed in transfected cells

NaV 1.7 = NaV 1.7 (Homo sapiens, UniProt Q15858); assay: Use-dependent block of NaV1.7 currents, IonWorks Quattro planar array electrophysiology; type: cell-based; settings: concentration producing 15% use-dependent inhibition, 10th versus 1st depolarizing pulse, 10 Hz

Row | SMILES | use-dependent pUD15 against NaV1.3 (hNaV1.3 channels) | use-dependent pUD15 against NaV1.7 (NaV 1.7)
1 | CCN(Cc1cccc(OC)c1)[C@@H]1CCN(c2nccc(C)c2C(=O)OC(C)C)C1 [Example 297, 1-methylethyl 2-[(3R)-3-(ethyl{[3-(methyloxy)phenyl]methyl}amino)-1-pyrrolidinyl]-4-methyl-3-pyridinecarboxylate] | 5-5.99 | inactive
2 | CC(C)OC(=O)c1cccnc1N1CCN(Cc2ccc(OCc3c(F)cccc3Cl)cc2)CC1 [Example 336, 1-methylethyl 2-{4-[(4-{[(2-chloro-6-fluorophenyl)methyl]oxy}phenyl)methyl]-1-piperazinyl}-3-pyridinecarboxylate] | 5-5.99 | inactive
3 | Cc1cc(OCc2ccccc2)ccc1CN1CCN(c2ncccc2C(=O)OC(C)C)CC1 [Example 315, 1-methylethyl 2-[4-({2-methyl-4-[(phenylmethyl)oxy]phenyl}methyl)-1-piperazinyl]-3-pyridinecarboxylate] | 4-4.99 | inactive
4 | CC(C)OC(=O)c1cccnc1N1CCN(Cc2cccc(COc3ccc(F)c(Cl)c3)c2)CC1 [Example 209] | inactive | inactive
5 | CC(C)OC(=O)c1cccnc1N1CCN(Cc2cccc(OCc3c(Cl)cccc3Cl)c2)CC1 [Example 75, 1-methylethyl 2-{4-[(3-{[(2,6-dichlorophenyl)methyl]oxy}phenyl)methyl]-1-piperazinyl}-3-pyridinecarboxylate] | 5-5.99 | 4-4.99
6 | CCN(Cc1cccc(-c2ccc(F)cc2)c1)[C@@H]1CCN(c2ncccc2C(=O)OC(C)C)C1 [Example 69, 1-methylethyl 2-((3R)-3-{ethyl[(4′-fluoro-3-biphenylyl)methyl]amino}-1-pyrrolidinyl)-3-pyridinecarboxylate] | 4-4.99 | inactive
7 | CC(C)OC(=O)c1cccnc1N1CCN(Cc2cccc(Oc3cccc(C(F)(F)F)c3)c2)CC1 [Example 372] | 5-5.99 | inactive
8 | CC(C)OC(=O)c1cccnc1N1CCN(Cc2cccc(COc3ccc(F)c(F)c3)c2)CC1 [Example 208] | 4-4.99 | 4-4.99
9 | CC(C)OC(=O)c1cccnc1N1CCN(Cc2cccc(-c3ccc(Cl)cc3)c2)CC1 [Example 356] | 5-5.99 | inactive
10 | CCN(Cc1ccc(CN(CC)[C@@H]2CCN(c3ncccc3C(=O)OC(C)C)C2)cc1)[C@@H]1CCN(c2ncccc2C(=O)OC(C)C)C1 [Example 529, Bis(1-methylethyl) 2,2′-{benzene-1,4-diylbis[methanediyl(ethylimino)(3R)-3,1-pyrrolidinediyl]}di(3-pyridinecarboxylate)] | 5-5.99 | 4-4.99
11 | CCN(Cc1ccc(CN2CCN(c3ncccc3C(=O)OC(C)C)CC2)cc1)Cc1c(Cl)cccc1Cl [Example 495] | 5-5.99 | 4-4.99
12 | Cc1cc(CN(C)[C@H]2CCN(c3ncccc3C(=O)OC(C)C)C2)sc1C [Example 13, 1-Methylethyl 2-{(3S)-3-[[(4,5-dimethyl-2-thienyl)methyl](methyl)amino]-1-pyrrolidinyl}-3-pyridinecarboxylate] | 5-5.99 | 4-4.99
13 | CC(C)OC(=O)c1cccnc1N1CCN(Cc2cccc(COc3ccccc3Cl)c2)CC1 [Example 213] | 4-4.99 | inactive
14 | CCOc1cc(CN2CCN(c3ncccc3C(=O)OC(C)C)CC2)ccc1OCc1ccccc1 [Example 321, 1-methylethyl 2-[4-({3-(ethyloxy)-4-[(phenylmethyl)oxy]phenyl}methyl)-1-piperazinyl]-3-pyridinecarboxylate] | 4-4.99 | inactive
15 | CC(C)OC(=O)c1cccnc1N1CCN(Cc2ccc3c(c2)Cc2ccccc2-3)CC1 [Example 344] | 4-4.99 | inactive
16 | COc1cccc(F)c1COc1ccc(CN2CCN(c3ncccc3C(=O)OC(C)C)CC2)cc1 [Example 440] | 5-5.99 | 4-4.99
17 | CCOc1cccc(CN(CC)[C@@H]2CCN(c3nccc(-c4ccccc4)c3C(=O)OC(C)C)C2)c1 [Example 168, 1-methylethyl 2-[(3R)-3-(ethyl{[3-(ethyloxy)phenyl]methyl}amino)-1-pyrrolidinyl]-4-phenyl-3-pyridinecarboxylate] | 4-4.99 | 4-4.99
18 | CC(C)OC(=O)c1cccnc1N1CCN(Cc2ccc(CCCc3ccccc3)cc2)CC1 [Example 29, 1-Methylethyl2-(4-{[4-(3-phenylpropyl)phenyl]methyl}-1-piperazinyl)-3-pyridine carboxylate hydrochloride] | 5-5.99 | 4-4.99
19 | CCN(Cc1ccc(Oc2ccc(F)cc2)cc1)[C@H]1CCN(c2ncccc2C(=O)OC(C)C)C1 [Example 170] | 4-4.99 | 4-4.99
20 | COc1ccc(Nc2ccc(CN3CCN(c4ncccc4C(=O)OC(C)C)CC3)cc2)cc1 [Example 124, 1-methylethyl 2-{4-[(4-{[4-(methyloxy)phenyl]amino}phenyl)methyl]-1-piperazinyl}-3-pyridinecarboxylate] | 4-4.99 | 4-4.99
21 | CC(C)OC(=O)c1cccnc1N1CCN(Cc2cccc(SCc3ccccc3)c2)CC1 [Example 37, 1-Methylethyl 2-[4-({3-[(phenylmethyl)thio]phenyl}methyl)-1-piperazinyl]-3-pyridine carboxylate hydrochloride] | 4-4.99 | inactive
22 | CC(C)OC(=O)c1c(-c2ccccc2)ccnc1N1CCN(Cc2cccc(Oc3ccccc3)c2)CC1 [Example 130, 1-methylethyl 4-phenyl-2-(4-{[3-(phenyloxy)phenyl]methyl}-1-piperazinyl)-3-pyridinecarboxylate] | 5-5.99 | 4-4.99
23 | CC(C)OC(=O)c1cccnc1N1CCN(Cc2ccc(OCc3c(Cl)cccc3Cl)cc2)CC1 [Example 444] | 4-4.99 | inactive
24 | CCc1ccccc1COc1ccc(CN2CCN(c3ncccc3C(=O)OC(C)C)CC2)cc1 [Example 432] | 4-4.99 | 4-4.99
25 | CC(C)OC(=O)c1cccnc1N1CCN(Cc2ccc(CNC(=O)c3ccccc3)cc2)CC1 [Example 525, 1-methylethyl 2-{4-[(4-{[(phenylcarbonyl)amino]methyl}phenyl)methyl]-1-piperazinyl}-3-pyridinecarboxylate] | 5-5.99 | 5-5.99
26 | CC(C)OC(=O)c1cccnc1N1CCN(Cc2ccc(OCc3cccc(Cl)c3Cl)cc2)CC1 [Example 452] | inactive | inactive
